# Reference: article PMC12040169 (PLOS Biology, 2025)
# This is one part of the list.
# Tested on: T1, CTL2-GFP (C. trachomatis L2/434/Bu, GFP-expressing)
# T1 construct: L2/434/Bu, GFP-expressing
# Design: species or system HeLa; Intracellular C. trachomatis growth in HeLa cells, bulk GFP fluorescence relative to DMSO
# Conditions: bulk GFP, single well; 28.5 h, 10 µM; inhibitor
row,SMILES,% of control remaining
1,Oc1cc(-c2ccccc2)nc(NNc2ccccc2)n1 [CBK261716],95.8965%
2,CCCS(=O)(=O)c1ccc2[nH]c(NC(=O)c3cnc(-c4ccccc4)c(-c4ccncc4)c3)nc2c1 [CBK037426],100.76%
3,O=C(Cn1cc(/C=C/c2[nH]c(=O)[nH]c(=O)c2[N+](=O)[O-])c2ccccc21)Nc1ccc2c(c1)OCO2 [CBK267036],166.654%
4,O=C(NCC(O)c1ccc([N+](=O)[O-])cc1)c1cccc(S(=O)(=O)N2CCCC2)c1 (stereo not shown) [CBK268847],103.235%
5,COc1cccc(-c2cncc(C3CCN(C(=O)CCOc4ccccc4)CC3)n2)c1 [CBK286153],112.847%
6,CCOc1cc2c(cc1CN1CCN(Cc3noc(C)n3)CC1)CCC2 [CBK307138],142.438%
7,COc1cccc(CNCC(c2ccnn2C)C(C)C)n1 (stereo not shown) [CBK304858],104.103%
8,OCCN(CCO)CC1CC=CCC1 (stereo not shown) [CBK261907],113.023%
9,CCOC(=O)c1cnc(NS(=O)(=O)c2cccc(Cl)c2C)nc1C [CBK004707],118.164%
10,CCCc1[nH]nc(O)c1CCc1ccc(OC)cc1OC [CBK081123],98.2239%
11,OCCNc1nccnc1-c1ccoc1 [CBK036580],102.753%
12,O=C1CNC(=O)C2(C/C=C/C[C@H]3COCC[C@H]3N1)CCN(Cc1ccc(F)cn1)CC2 [CBK292160],126.925%
13,CCn1c2cc(C)oc2c2cn[nH]c(=O)c21 [CBK284230],169.074%
14,CC(O)(CC(=O)O)CC(=O)OCCc1ccc2c(c1)CCC2 (stereo not shown) [CBK017766],146.413%
15,CCOc1ccc(-n2c(SC/C=C/c3ccccc3)nnc2-c2cccnc2)cc1 [CBK266222],99.1056%
16,Clc1ccc(COc2nccnc2OCc2cccnc2)cc1Cl [CBK161597],118.081%
17,OCCn1ncc2c(SC3CCCCC3)ncnc21 [CBK269358],142.898%
18,CCOC(=O)C1CCCN(Cc2ccc(OC)cc2)C1 (stereo not shown) [CBK304413],125.631%
19,CS(=O)(=O)c1ccc(-n2cc(-c3cccnc3)nn2)cc1 [CBK113061],119.432%
20,CCOc1ccccc1NC(=O)c1cc(CC(C)C)oc1C [CBK057904],85.2356%
21,COC(=O)COc1ccc(C(NC(=O)c2ccccc2)C(Cl)(Cl)Cl)cc1 (stereo not shown) [CBK265437],103.744%
22,Cc1cccn2c(=O)c(/C=C3\SC(=S)N(CCCC(=O)O)C3=O)c(N3CCC(C)CC3)nc12 [CBK264793],100%
23,CC(C)(C)c1n[nH]c(C2CN(C(=O)CCCn3cccn3)CCO2)n1 (stereo not shown) [CBK305198],124.792%
24,COc1ccc(-c2nn(-c3ccccc3)cc2/C=C2\SC(N3CCC(C(N)=O)CC3)=NC2=O)cc1 [CBK265178],103.69%
25,O=C(O)COCC(=O)N1CCC2(CC1)NC(=O)Cc1c2ccc2ccccc12 [CBK047168],178.283%
26,Cc1cc(NC(=O)C(=O)NCCN2CCN(S(C)(=O)=O)CC2)ccc1Br [CBK265401],131.132%
27,COc1ccc(-c2nc3ncccc3cc2O)cc1C [CBK073700],121.484%

row,SMILES,% of control remaining
1,COCCCn1c(=O)[nH]c2ncc(-c3cccc(NC(C)=O)c3)nc21 [CBK064433],117.22%
2,Cc1ccc(O)c(CN(CCCn2ccnc2)CC2CC=CCC2)c1 (stereo not shown) [CBK282829],118.145%
3,Cc1ccc(C(=O)N2CCN(Cc3cc(=O)n4ccsc4n3)CC2)cc1 [CBK305057],95.0395%
4,O=C(c1ccco1)N1CCN(c2cncc(-c3ccc(F)cc3F)n2)CC1 [CBK065818],163.412%
5,CCCc1ccc(S(=O)(=O)Nc2c(C(=O)OC)sc3ncccc23)cc1 [CBK050653],119.814%
6,CCCc1nc(C(=O)N2Cc3cnn(Cc4ccc(F)cc4)c3C2)cs1 [CBK307249],138.907%
7,CCNC(=O)Nc1cc2ccccc2c(-c2cccnc2)n1 [CBK073787],127.319%
8,Cc1cc(Cl)ccc1CNC(=O)/C=C/c1ccc(C(C)C)cc1 [CBK149615],121.788%
9,Cn1ncnc1CCNS(=O)(=O)c1cccc(C(=O)N2CCCCC2)c1 [CBK306731],131.191%
10,COc1ccc(S(=O)(=O)N(C)CC(=O)Nc2ccc(C(N)=O)cc2)cc1C [CBK267278],123.174%
11,CCOC(=O)NC(=S)NCCCn1ccnc1 [CBK018272],110.031%
12,O=C(c1ccccc1F)N1CCCC(c2cc3ncccc3cn2)C1 (stereo not shown) [CBK284710],152.94%
13,O=c1[nH]c(=O)c2cc(S(=O)(=O)NCC3(N4CCOCC4)CCCCC3)ccc2[nH]1 [CBK286390],117.749%
14,CC1CC1C(=O)NCCN1CCC(O)(c2ccc(F)cc2)CC1 (stereo not shown) [CBK283168],102.022%
15,CCC(NC(=O)Nc1cc(N2CCOCC2)ccc1Cl)c1cnn(C)c1 (stereo not shown) [CBK306844],90.9029%
16,CCn1ncc(CN2C3CCC2CC(O)(c2ccc(F)cc2)C3)c1C (stereo not shown) [CBK282973],163.693%
17,CC1(C)CC(=O)c2cnc3cc(-c4ccco4)nn3c2C1 [CBK283142],103.335%
18,Cc1nn(C(C)C)c(C)c1CN(CCCN(C)C)Cc1ccco1 [CBK282978],152.097%
19,Cc1ccc(OCCCCNCCN)c(Br)c1 [CBK265099G],100%
20,CCCc1cc(C(=O)OC)c(NC(=O)CC2Nc3ccccc3NC2=O)s1 (stereo not shown) [CBK269451],82.7227%
21,Cc1ccc(OCC(=O)N2CCCCC2c2nccs2)cc1 (stereo not shown) [CBK305091],116.998%
22,O=C(O)CCC(=O)N1N=C(c2c(-c3ccccc3)c3cc(Br)ccc3[nH]c2=O)CC1c1ccc([N+](=O)[O-])cc1 (stereo not shown) [CBK267543],146.069%
23,O=[N+]([O-])c1ccc(NCCNC(=S)Nc2ccc(Cl)cc2)nc1 [CBK263594],92.2997%
24,CCOc1ccc(NC(=O)c2ccc(CN3CCOCC3)cc2)cc1 [CBK033557],97.0558%
25,O=C(O)c1ccc(OCc2n[nH]c(=S)n2-c2ccc(Cl)cc2)cc1 [CBK014317],105.438%
26,O=C(c1cccs1)N1CCC(c2onc3c2CCCC3)CC1 [CBK285181],104.903%
27,O=C(c1ccco1)c1cnc2ccccn2c1=O [CBK010791],115.605%

row,SMILES,% of control remaining
1,CC(C)NS(=O)(=O)c1ccc(NC(=O)COc2ccc3ccccc3c2Br)cc1 [CBK267920],89.2123%
2,Cc1cccc(OCCSc2nc3c(N)ncn(Cc4ccccc4)c-3n2)c1 [CBK266843],156.67%
3,N#Cc1cccc(C(=O)N2CCC3(CCN(C(=O)c4cc(F)c(F)cc4F)C3)C2)c1 (stereo not shown) [CBK131387],118.561%
4,COc1cc(Nc2nc(-c3cccc(OC(F)(F)F)c3)cn3ccnc23)cc(OC)c1OC [CBK038036],84.8739%
5,CN1CCN(CC(CC(=O)Nc2c(F)cccc2F)C(=O)O)CC1 (stereo not shown) [CBK286867],124.512%
6,CCOC(=O)NC(NCc1ccco1)(C(F)(F)F)C(F)(F)F [CBK057654],127.759%
7,O=C1C2(Cc3ccccc3)CN3CN(C2)CC1(Cc1ccccc1)C3 [CBK261341],109.661%
8,Cc1cnn(CC2CC2)c1NC(=O)Cc1csc(N2CCCC2=O)n1 [CBK304940],136.449%
9,O=C1C[C@@H]2CCN(C(=O)COc3ccccc3)C[C@@H]2CCN1Cc1cccnc1 [CBK288793],137.778%
10,CC(CC(=O)O)n1nnc2ccccc21 (stereo not shown) [CBK264139],112.099%
11,CCN1CCC(NCc2ccc(OCC(N)=O)cc2)CC1 [CBK306106],113.573%
12,Cc1cc(C)nc(NCCC(=O)O)n1 [CBK270154],129.327%
13,Cc1nc(CCNCc2c(C(C)C)nn(C)c2N(C)C)cs1 [CBK304002],91.3432%
14,CN(CC(=O)C(C#N)c1ccccc1)Cc1ccccc1 (stereo not shown) [CBK269432],114.461%
15,CC(C)NC(=O)CN1C(=O)N2CCCN=C2c2ccc(Cl)cc21 [CBK284390],113.618%
16,CC(C)c1ccc(S(=O)(=O)NCCC(C)(C)C)cc1 [CBK043640],107.423%
17,O=C(CN1CCC(c2cccc(Cc3cccc(F)c3)n2)CC1)Nc1nccs1 [CBK286090],102.359%
18,COCCn1c(CO)nnc1[C@H]1C[C@@H](NC(=O)c2cc(F)ccc2F)C1 [CBK307032],182.519%
19,OC(COc1cccc2c1CCCC2)CN1CCC(O)(c2ccc(Cl)c(C(F)(F)F)c2)CC1 (stereo not shown) [CBK003581],69.4637%
20,CCOC(=O)c1cnc2ccc(Br)cc2c1NCc1cccnc1 [CBK265030],100%
21,Cc1cccn2c(=O)cc(CN3CCCC(N4CCNC4=O)C3)nc12 (stereo not shown) [CBK304947],155.257%
22,Cc1cc(Cl)cc(Cl)c1S(=O)(=O)Nc1nc2c(s1)CN(C(=O)N1CCOCC1)CC2 [CBK000931],111.41%
23,Cc1ccc2nc(C(=O)O)cc(OCC(=O)Nc3ccccc3F)c2c1 [CBK287255],137.509%
24,CC(NC(=O)N1CCSCC1)c1cccc(N2CCCC2)c1 (stereo not shown) [CBK305230],114.021%
25,Cn1c(=O)c2c(nc(CN3CCCCC3)n2CCN2CCOCC2)n(C)c1=O [CBK269281],150.348%
